The target in assay [1] is Rab7 (human (endogenous in Hep2)) (UniProt P51149). Kind of assay: co-IP; endogenous proteins in lysate of Hep2 cells stimulated with FbaA; anti-Beclin-1 or anti-Rab7 antibody overnight at 4°C, protein A/G beads (Pierce classic magnetic IP/co-IP kit), Western blot. In general terms: Immunoblotting shows a protein as a band on a membrane.
In assay [2] the target is Beclin-1 (human (endogenous in Hep2)) (UniProt Q14457). The description is as above.

Sequences of proteins named here, by UniProt entry; tags and fusion partners are left off.
UniProt P51149: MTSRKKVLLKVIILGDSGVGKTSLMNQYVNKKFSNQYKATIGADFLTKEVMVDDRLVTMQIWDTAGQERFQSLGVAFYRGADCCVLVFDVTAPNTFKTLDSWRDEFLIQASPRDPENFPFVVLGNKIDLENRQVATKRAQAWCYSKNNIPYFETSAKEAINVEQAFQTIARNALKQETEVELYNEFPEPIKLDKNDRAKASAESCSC
UniProt Q14457: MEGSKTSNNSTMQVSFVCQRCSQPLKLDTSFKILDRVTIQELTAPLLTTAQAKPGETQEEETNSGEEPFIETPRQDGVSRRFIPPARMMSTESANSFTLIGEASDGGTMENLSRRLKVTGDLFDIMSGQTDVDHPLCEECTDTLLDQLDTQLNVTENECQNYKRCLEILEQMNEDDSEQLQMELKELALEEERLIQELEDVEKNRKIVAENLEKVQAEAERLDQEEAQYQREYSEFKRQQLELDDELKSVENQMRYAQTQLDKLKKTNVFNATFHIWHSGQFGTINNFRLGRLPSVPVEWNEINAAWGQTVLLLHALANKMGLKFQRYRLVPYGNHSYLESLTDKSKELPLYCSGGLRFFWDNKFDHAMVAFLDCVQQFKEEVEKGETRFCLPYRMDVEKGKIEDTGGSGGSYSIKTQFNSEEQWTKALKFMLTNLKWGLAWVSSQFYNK

No constants are given. Whether binding was seen depends on the method and setting. Binding seen in cells or lysates may run through a third protein. Some entries that bind do so weakly or less than the wild type.

The source of these data is paper PMC7371361.

Take Beclin-1 (from UniProt Q14457 1-450): the binding result in assay [1] was “binds”. With Rab7 (from UniProt P51149 1-207), in assay [2], the binding result was “binds”.
